The other results are listed elsewhere or left out.

The test system of the test is T1, CTL2-GFP (C. trachomatis L2/434/Bu, GFP-expressing).
T1 construct: L2/434/Bu, GFP-expressing
Also noted: species or system HeLa; Intracellular C. trachomatis growth in HeLa cells, bulk GFP fluorescence relative to DMSO. The settings on record: bulk GFP, single well; 28.5 h, 10 µM; inhibitor.
Take `O=C(O)CCSc1nc2ccccc2[nH]1` [CBK262056]: the “% of control remaining” value worked out at 100%. The figure for `COc1ccc2[nH]cc(CCNC(=O)COc3ccc(O)cc3)c2c1` [CBK116227] is 91.3046%. The figure for `CCCc1n[nH]c(=S)n1CC(=O)NCc1ccc(N2CC(C)OC(C)C2)nc1` (stereo not shown) [CBK297741] is 140.925%; for `CC(=O)Nc1ccc(OCC(O)Cn2ncc3ccccc3c2=O)cc1` (stereo not shown) [CBK305567] it is 130.03%; for `CCc1nc2ccccc2n1CC(=O)N(C)C(C)c1cccnc1` (stereo not shown) [CBK304017] it is 90.095%.

For `COc1ccc(-c2cnn(-c3ccccc3CN(C)C)n2)cc1` [CBK112762], the “% of control remaining” value is on record as 117.596%. The figure for `Cc1nn2c(-c3ccc(NC(=O)c4cccs4)cc3)nnc2c2ccccc12` [CBK267134] is 145.273%; for `O=C(/C=C/c1cccc([N+](=O)[O-])c1)NC(=S)Nc1ccc(-c2nc3ncccc3o2)cc1` [CBK264391] it is 112.207%. The figure for `CSCCC(NC=C1C(=O)CC(C)(C)CC1=O)C(=O)O` (stereo not shown) [CBK261311] is 118.669%. The figure for `Cc1cc(C)cc(NC(=O)c2ccccc2NS(=O)(=O)c2ccc(F)c(F)c2F)c1` [CBK113886] is 110.085%.

`CC(CNc1cc(=O)n2ccccc2n1)CN1CCCC1` (stereo not shown) [CBK305270]: the “% of control remaining” value is reported as 87.4551%. The figure for `COc1cccc(CNc2nccnc2-c2ccsc2)c1OC` [CBK037543] is 78.5375%; for `Cn1ncc2c1CCCC2NC(=O)NCc1ccc(C#N)cc1F` (stereo not shown) [CBK305193] it is 103.82%. On to `CN(C)C(=O)C1CN(C(=O)C(C)(C)c2ccccc2F)C1` [CBK281970], for which the “% of control remaining” value turned out to be 108.268%. The figure for `CN1CCN(CC2(CNC(=O)c3ccc(C(=O)O)cc3)CC2)CC1` [CBK307517] is 136.488%; for `CC(=O)N[C@@H](CC(C)C)C(=O)Nc1cc(C)nc2ccccc12` [CBK116265] it is 114.776%.

For the compound `CCc1nn(CC(=O)NC2CC2)c(=O)c2cc3ccsc3n12` [CBK284128], the “% of control remaining” value stood at 91.4921%. The figure for `O=C(O)COc1ccccc1/C=N/NC(=O)Cc1ccc(Br)c2ccccc12` [CBK263116] is 99.4711%; for `CCOc1ncccc1NC(=O)Cc1cccc(OC)c1` [CBK256406] it is 149.581%. The figure for `CN(Cc1ccsc1)C(=O)c1cccc(S(=O)(=O)NC(C)(C)C)c1` [CBK305425] is 107.276%; for `Cc1noc(C(C)C)c1C(=O)NC1CCCN(c2ccn(C)n2)C1=O` (stereo not shown) [CBK306356] it is 140.455%. The figure for `Cc1cc(C)c2c(OCC(=O)NC(C)C)nn(C)c2n1` [CBK306393] is 128.872%; for `Cc1csc2ncc(C(=O)Nc3ccccc3F)c(=O)n12` [CBK287455] it is 108.753%; for `COc1cccc(NC(=O)CSc2nnc(-c3ccccc3O)n2-c2ccccc2)c1` [CBK268343] it is 86.2094%.

Turning to `CCC(C)NC(=O)C1(Cc2ccc(-c3cc(F)ccc3OC)cc2)CCOCC1` (stereo not shown) [CBK285539], the “% of control remaining” value is 124.932%. As to `O=C(NCCN1CCOCC1)C1CCCN(c2nc3c(-c4ccccc4)csc3c(=O)[nH]2)C1` (stereo not shown) [CBK215509], the “% of control remaining” value is given as 133.553%. The figure for `CC(C)N1CCC[C@H]1c1nc(-c2ccc(N3CCN(C)CC3)nc2)no1` [CBK288881] is 161.505%. The figure for `CCn1nc(-c2ccc(C)o2)nc1CC1NC(=O)c2ccccc21` (stereo not shown) [CBK306834] is 114.655%. The figure for `Nc1nnc(C2CCCCC2)s1` [CBK039123] is 91.8607%; for `COCCCNS(=O)(=O)c1ccc(-n2ncc(Cl)c(Cl)c2=O)cc1` [CBK305039] it is 38.8397%; for `CN1CCC(N2CCN(C(=O)Nc3ccc(Cl)cc3)CC2)CC1` [CBK155899] it is 97.1157%. Take `Cc1cc2ccccc2n2c(=O)n(CC(=O)NC3CCCC3)nc12` [CBK283884]: the “% of control remaining” value was 128.488%.

In the case of `CC(C)c1ccc(S(=O)(=O)NCc2c(F)ccc(Cl)c2F)cc1` [CBK043484], the “% of control remaining” value is reported as 98.0631%. For the compound `O=C([C@H]1C[C@@H](O)[C@H](O)[C@@H]2N=C(Nc3ccc4c(c3)OCO4)S[C@@H]21)N1CCCCC1` [CBK288953], the “% of control remaining” value was 123.703%. Turning to `CC(C)Nc1nc2ccccc2nc1OCc1ccsc1` [CBK115660], the “% of control remaining” value was found to be 160.428%. The figure for `Cc1ccc(OC(C)C(=O)N2CCCc3c(cnn3C)C2)cc1` (stereo not shown) [CBK282242] is 129.927%. The figure for `Cc1cccc(C)c1-c1cn2ccnc2c(N2CCN(c3ccccn3)CC2)n1` [CBK037389] is 121.25%; for `O=S(=O)(c1c(Cl)cc(C(F)(F)F)cc1Cl)N1CCOCC1` [CBK057736] it is 113.18%. The figure for `CCc1nnsc1C(=O)N1CCc2[nH]c3c(C)cccc3c2C1` [CBK281655] is 138.317%.

With `Cc1ccc(C2C(C(=O)c3ccc(Cl)cc3)=C(O)C(=O)N2CCCN2CCOCC2)o1` (stereo not shown) [CBK264514], the “% of control remaining” value is recorded as 123.069%. The figure for `COc1cncc(-c2cnc3[nH]c(=O)n([C@H](CO)C(C)C)c3n2)c1` [CBK064977] is 110.442%. The figure for `COc1coc(CN2C(=O)COc3cccnc32)cc1=O` [CBK307126] is 78.8149%.

With `O=C(O)C1CC1(C(=O)O)C(=O)O` (stereo not shown) [CBK261009], the “% of control remaining” value was 80.5401%. The figure for `COc1ccc(-c2nnc(SCC(=O)c3ccccc3)o2)cc1` [CBK069390] is 101.967%; for `CCOC(=O)N1CCC(NC(=O)N2CCCC(C(=O)N(CC)CC)C2)CC1` (stereo not shown) [CBK156159] it is 104.723%; for `O=C(CSc1nc2ccccc2c(=O)n1Cc1ccccc1)c1ccc(Br)cc1` [CBK262700] it is 109.873%. For `Cc1cccc2c1CC(=O)NC21CCN(CC(=O)c2ccc(F)cc2)CC1` [CBK039946], the “% of control remaining” value is on record as 111.375%. The figure for `CC(=O)N1CCC(N[C@H]2C[C@@H](Cc3cc(CN4CCCCC4)on3)C2(C)C)CC1` [CBK289699] is 176.606%; for `O=C(CC(CN1CCN(CCO)CC1)C(=O)O)Nc1ccccc1F` (stereo not shown) [CBK286790] it is 126.225%; for `Nc1n[nH]c(CCCc2nc(N)n[nH]2)n1` [CBK261016] it is 94.5869%. The figure for `COc1ccc(-c2cc(N3CCC(N4CCCCC4)CC3)ncn2)cc1OC` [CBK037752] is 104.897%.

Take `O=C(O)c1cc(NCc2cccc(F)c2F)n[nH]1` [CBK287006]: the “% of control remaining” value stood at 135.407%. As for `Cc1nnc(O)c2c(C)n(-c3ccc(Br)cc3)nc12` [CBK008726], the “% of control remaining” value is listed as 136.062%. The figure for `O=C(Nc1cccc(C(=O)O)c1)Nc1cccc(-c2ccccc2)c1` [CBK155451G] is 65.3581%; for `CCC(=O)N1CCCC(c2nnc(-c3cccs3)o2)C1` (stereo not shown) [CBK283060] it is 152.23%; for `CSc1nnc(CC2CCN(C(=O)c3cccc(N)c3)CC2)n1C` [CBK307339] it is 172.018%. The figure for `CN(C)C(=O)C1(Cc2ccccc2-c2cccs2)CCN(C(=O)Cc2ccccc2)CC1` [CBK285687] is 109.338%.

For `COc1ccc(S(=O)(=O)N(C)CC(=O)O)cc1C` [CBK267176], the “% of control remaining” value is 123.99%. The figure for `CCCN(C(C)C(=O)N(C)C)S(=O)(=O)c1ccc(Cl)cc1` (stereo not shown) [CBK016123] is 100%. Regarding `Cc1cccc(OCc2nc3c4c5c(sc4ncn3n2)CCCCC5)c1C` [CBK265284], the “% of control remaining” value came out at 123.427%. The figure for `O=C(O)CCN1CCN(S(=O)(=O)c2ccccc2)CC1` [CBK269402] is 144.656%; for `COc1ccc(C2(C(=O)N[C@H]3CC[C@H](O)CC3)CC2)cc1` [CBK149840] it is 115.079%; for `O=C(c1c(F)cc(-c2cncc(-c3ccc(O)cc3)n2)cc1F)N1CCOCC1` [CBK131973] it is 139.907%. On to `CC(C)CN(CC(C)C)C(=O)Cn1cc([N+](=O)[O-])cc(C(N)=O)c1=O` [CBK297784], for which the “% of control remaining” value was found to be 152.256%.

As for `CC(C)C(=O)N1CC2(CCN(Cc3ccc(Cl)c(Cl)c3)CC2)c2ccccc21` [CBK126715], the “% of control remaining” value turned out to be 95.8212%. `O=C(Cc1cccc(F)c1)N1CCC(O)(c2ccccn2)CC1` [CBK283586]: the “% of control remaining” value amounted to 148.28%. The figure for `O=C(NC1CCS(=O)(=O)C1)c1cc(-c2cccnc2)cnc1NCc1ccc2c(c1)OCO2` (stereo not shown) [CBK076455] is 142.408%; for `Cc1ccc(NC2=NC(C(=O)Nc3ccc(C)c(C)c3)CC(=O)N2)cc1` (stereo not shown) [CBK266718] it is 116.859%.

As to `Cc1ccc(S(=O)(=O)NC(=O)N2CC3(C)CC2CC(C)(C)C3)cc1` (stereo not shown) [CBK023512], the “% of control remaining” value is on record as 107.06%. The figure for `OC(CN1CCN(c2ccc(C(F)(F)F)cn2)CC1)c1ccc2c(c1)OCCO2` (stereo not shown) [CBK074707] is 84.3393%; for `COc1ccc(OC)c(C(O)CN2CCCC(C(=O)N3CCCCCC3)C2)c1` (stereo not shown) [CBK286286] it is 104.354%. The figure for `COc1ccc(C(=O)N2CCC3(CCN(CCCCC4NC(=O)NC4=O)C3)C2)cc1OC` (stereo not shown) [CBK132169] is 137.653%; for `O=C(NCCc1c[nH]c2ccccc12)c1cc(Br)cnc1N1CCOCC1` [CBK076224] it is 127.353%; for `Cn1ccnc1C1(O)CCN(C(=O)CCc2ccccc2)CC1` [CBK283542] it is 127.973%. For the compound `Clc1ccc(-c2nc(-c3ccncc3)no2)c(Cl)c1` [CBK262615], the “% of control remaining” value is 103.637%. The figure for `C=CCN1C(=O)CC2(C1=O)C(=O)N(C)c1ccc(Cl)cc12` (stereo not shown) [CBK075242] is 96.7644%; for `COc1ccc(OC(C)C(=O)Nc2cc3oc4ccccc4c3cc2OC)cc1` (stereo not shown) [CBK266751] it is 113.889%. On to `O=c1[nH]c(=O)c2cc(S(=O)(=O)N3CCc4[nH]c5ccccc5c4C3)ccc2[nH]1` [CBK285949], for which the “% of control remaining” value stood at 103.869%. The figure for `CCc1nc2ccc(C(=O)NCCN3CCOCC3)cn2c1N(C)Cc1cc2ccccc2s1` [CBK146561] is 107.845%.

The values are drawn from paper PMC12040169 (PLOS Biology, 2025).
